Where a name gives a salt, the structure may show the parent alone. This is one part of the list. The calls rarely recur for the same compound in another form.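 In K562 cells expressing nanoluciferase-fused kinases, luminescence was recorded at 4 h intervals between 2 and 18 h, normalized as percent of control with DMSO at 100% and a positive control at 0%. A significant (2 sigma) signal drop marks a time point as decreased. The authors' rule for a hit is not shown and takes in more than the number of time points.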

Protein sequences, listed by entry. Tags and fused reporters are not part of them.
UniProt P36888, whole entry: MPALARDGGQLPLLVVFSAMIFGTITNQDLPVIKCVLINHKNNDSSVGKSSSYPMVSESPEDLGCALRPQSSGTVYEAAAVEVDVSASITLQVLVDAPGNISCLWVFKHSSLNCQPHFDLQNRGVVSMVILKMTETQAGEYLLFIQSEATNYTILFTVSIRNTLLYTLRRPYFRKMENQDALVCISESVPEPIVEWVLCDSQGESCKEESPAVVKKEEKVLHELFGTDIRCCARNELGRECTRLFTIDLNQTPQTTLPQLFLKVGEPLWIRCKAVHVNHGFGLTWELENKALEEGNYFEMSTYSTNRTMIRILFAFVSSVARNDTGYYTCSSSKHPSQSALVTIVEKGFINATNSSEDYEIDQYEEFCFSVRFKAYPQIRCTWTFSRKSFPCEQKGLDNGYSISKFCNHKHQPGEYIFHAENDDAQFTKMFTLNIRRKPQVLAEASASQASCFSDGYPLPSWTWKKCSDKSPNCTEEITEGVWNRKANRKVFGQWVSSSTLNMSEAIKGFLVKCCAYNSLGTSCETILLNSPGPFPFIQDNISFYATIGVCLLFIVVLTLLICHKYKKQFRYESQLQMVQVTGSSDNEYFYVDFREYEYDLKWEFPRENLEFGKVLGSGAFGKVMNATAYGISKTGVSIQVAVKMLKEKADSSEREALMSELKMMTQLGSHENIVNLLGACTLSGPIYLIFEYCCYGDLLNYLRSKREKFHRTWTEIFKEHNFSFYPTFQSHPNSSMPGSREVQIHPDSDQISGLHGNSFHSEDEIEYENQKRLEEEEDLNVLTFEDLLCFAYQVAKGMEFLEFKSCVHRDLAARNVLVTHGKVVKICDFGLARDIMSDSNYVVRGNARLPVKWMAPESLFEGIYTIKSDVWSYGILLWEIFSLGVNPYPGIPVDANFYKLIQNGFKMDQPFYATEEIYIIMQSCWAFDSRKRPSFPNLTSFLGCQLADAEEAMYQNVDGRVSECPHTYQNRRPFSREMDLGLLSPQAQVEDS

The assay concerns the target FLT3 (UniProt P36888). Briefly: number of time points (of 5) at which kinase-Nluc abundance scored as decreased, DMSO-normalised (count); higher = more persistent destabilization. As to conditions: K562; 2-18 h.
With `CCc1c(C(=O)NNC(=O)C(O)c2cc(F)cc(F)c2)ccc(O)c1C` (stereo not given) (10 µM), the “number of time points” value is 0.
Consider `COc1cc2ncnc(Nc3ccc(Cl)cc3F)c2cc1OC` (10 µM), for which the “number of time points” value came to 0.
As to `COc1cc(/C=C/C(=O)NCC(O)c2ccc(O)cc2)ccc1O` (stereo not given) [N-Feruloyloctopamine] (2.5 µM), the “number of time points” value came to 0.
For the compound `NC(=O)c1nc(Nc2ccccc2)sc1NC(=O)C1CCCCC1` (10 µM), the “number of time points” value turned out to be 0.
As for `O=c1cc(CN2CCOCC2)occ1OCCCCCSc1ccnc2cc(C(F)(F)F)ccc12` (10 µM), the figure is 0; as for `O=C(O)CCC(=O)Nc1ccc(Br)cn1` [Bikinin] (10 µM), 0; as for `CC[C@@H](Oc1nc(Oc2cc(C)cc(-c3cccc(CN)c3)c2)c(F)cc1F)C(=O)O` (10 µM), 0.
As for `C[C@]1(O)CCN(c2nc(N3C[C@H](O)[C@@H](O)C3)cc(C(F)(F)F)c2C#N)C1` (10 µM), the figure is 0; as for `COc1ccccc1-c1cc(Nc2cccc(CS(N)(=O)=O)c2)ncn1` (10 µM), 3.
`CC(=O)c1c(C)cc2cccc(O)c2c1O` [Nepodin] (10 µM): the “number of time points” value was 0.
`NC(=O)c1ccc2[nH]ccc2c1` (10 µM): the “number of time points” value was found to be 0.
`COc1cc2c(cc1OC)CN(S(=O)(=O)c1ccc(OC)c(N3CCN(C(=O)c4ccc(F)cc4C(F)(F)F)CC3)c1)CC2` (10 µM): the “number of time points” value was 0.
For `OCCn1cc(-c2ccc3c(c2)CC/C3=N\O)c(-c2ccncc2)n1` (10 µM), the “number of time points” value worked out at 0.
Turning to `C[C@@H]1CC[C@@H](Nc2nc(NC(C)(C)C)ncc2C(N)=O)C[C@H]1O` (10 µM), the “number of time points” value is 0.
Regarding `CCc1cc2c(cc1N1CCC(N3CCOCC3)CC1)C(C)(C)c1[nH]c3cc(C#N)ccc3c1C2=O` [Alectinib] (10 µM), the “number of time points” value is 0.
For the compound `COCCNc1nc2ccc(C#CC3(O)CCCCC3)cc2n1-c1ccnc(N)n1` (10 µM), the “number of time points” value was 0.
To `Cc1[nH]c(/C=C2\C(=O)Nc3ccccc32)c(C)c1CCC(=O)O` [Orantinib] (10 µM) belongs 0.
For `Nc1cc(C(F)(F)F)c(-c2cc(N3CCOCC3)nc(N3CCOCC3)n2)cn1` [Buparlisib (Hydrochloride)] (2.5 µM), the “number of time points” value amounted to 0.
On to `CCN1CCN(Cc2ccc(Nc3ncc(F)c(-c4cc(F)c5nc(C)n(C(C)C)c5c4)n3)nc2)CC1` [Abemaciclib (methanesulfonate)] (10 µM), for which the “number of time points” value was determined as 3.
Take `Cc1ccc2cc(-c3c(C)ccc(C(=O)c4c(-c5ccccc5)n(C)n(-c5ccccc5)c4=O)c3N)ccc2n1` (2.5 µM): the “number of time points” value stood at 0.
Regarding `FC(F)(c1ccc2ncccc2c1)c1nnc2ccc(-c3ccncc3)nn12` (10 µM), the “number of time points” value was 0.
Turning to `O=C1N[C@@H](Cc2c[nH]c3ccccc23)C(=O)N2CCC[C@@H]12` [Brevianamide F] (10 µM), the “number of time points” value was 0.
For `Cc1nc2sccn2c(=O)c1CCN1CCC(=C(c2ccccc2)c2ccc(F)cc2)CC1` (10 µM), the “number of time points” value worked out at 0.
As for `O=c1[nH]c(=O)n([C@@H]2O[C@H](CO)[C@@H](O)[C@@H]2O)cc1/C=C/Br` [Sorivudine] (10 µM), the figure is 0; as for `COc1cc2nccc(Oc3ccc(NC(=O)NC4CC4)c(Cl)c3)c2cc1C(N)=O` [Lenvatinib (mesylate)] (10 µM), 3.
With `CN1C(=O)N[C@H](Cc2c[nH]c3c(Cl)cccc23)C1=O` [Necrostatin 2] (10 µM), the “number of time points” value was determined as 0.
As to `CCN1CCN(Cc2ccc(Nc3ncc(F)c(-c4cc(F)c5nc(C)n(C(C)C)c5c4)n3)nc2)CC1` [Abemaciclib] (2 µM), the “number of time points” value was found to be 0.
For `Cc1ccc2nc(NCCN)c3ncc(C)n3c2c1` (2.5 µM), the “number of time points” value worked out at 0.
Take `CNC(=O)c1c(F)cccc1Nc1nc(Nc2cc3c(cc2OC)CCN3C(=O)CN(C)C)nc2[nH]ccc12` (10 µM): the “number of time points” value came to 0.
Take `Cn1nccc1Nc1nccc(-c2ccn([C@H](CO)c3ccc(Cl)c(F)c3)c(=O)c2)n1` [Ravoxertinib hydrochloride] (10 µM): the “number of time points” value amounted to 0.
As for `CN(C)CCSSCCNC(=O)C1CCN(C(=O)CSc2ccc(Cl)cc2)CC1` (10 µM), the figure is 0; as for `CNC(=O)c1cc(COc2nnc(Nc3ccc(Cl)cc3)c3ccoc23)ccn1` [Telatinib] (10 µM), 0; as for `NCCNS(=O)(=O)c1cccc2c(Cl)cccc12` [A-3 (hydrochloride)] (10 µM), 0.
On to `O=C(Nc1ccc(CN2CCOCC2)cc1)c1ccc(-c2cccc(Cl)c2)o1` (10 µM), for which the “number of time points” value is 0.
Take `CCN1CCN(Cc2ccc(-c3cc4c(N[C@H](C)c5ccccc5)ncnc4[nH]3)cc2)CC1` (2.5 µM): the “number of time points” value worked out at 1.
